PubChem BioAssay AID743121, NCATS – 2013

- Screen: 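Knock-downs that sensitise breast cancer cells to camptothecin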 (primary screen)
- Cells: MDA-MB-231 cells, a human breast cancer line
- Reagents: single siRNA against human genes, 20 nM siRNA (0.8 pmol per well)
- Timing: 120 h (drug added 48 h after transfection, read 72 h later)
- Challenge: camptothecin 20 nM (about EC30) for 72 h; vehicle 0.1% DMSO in parallel plates
- Read-out: 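Cell viability by ATP luminescence (CellTiter-Glo) as % of non-targeting siRNA wells, and the log2 ratio of viability without drug over viability with camptothecin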
- Reading the numbers: log2 vehicle/camptothecin viability: higher = stronger sensitisation to camptothecin; viability with camptothecin and viability without drug: higher = more viable cells
- Hit rule: 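Active genes have an RSA gene-level p-value below 0.001, computed from the ratios of their separate siRNAs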
In all, the deposit lists about 26,000 reagents; below is a part drawn at random. Over the whole deposit, 167 (0.63%) are marked active. 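Calls are per gene from RSA p-values that are not deposited; an individual active-marked siRNA can sensitise only weakly.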

| target | PubChem SID | log2 vehicle/camptothecin viability | viability with camptothecin (% of control) | viability without drug (% of control) | Call |
| --- | --- | --- | --- | --- | --- |
| KIF2C | SID164414863 | 0.194 | 52.3 | 59.8 | inactive |
| KIF2C | SID164414867 | -0.0688 | 96.3 | 91.8 | inactive |
| KIF2C | SID164414868 | -0.437 | 134 | 98.8 | inactive |
| BCL2L1 | SID164355137 | 2.12 | 2.16 | 9.37 | active |
| BCL2L1 | SID164355140 | 0.369 | 12.1 | 15.6 | active |
| BCL2L1 | SID164355142 | 1.62 | 23.2 | 71.4 | active |
| RNF133 | SID164580154 | -0.0807 | 86.9 | 82.2 | inactive |
| RNF133 | SID164580155 | -0.0567 | 83.1 | 79.9 | inactive |
| RNF133 | SID164580157 | -0.198 | 53.3 | 46.4 | inactive |
| RNF133 | SID164580159 | -0.673 | 99 | 62.1 | inactive |
| IK | SID164371143 | -0.276 | 3.72 | 3.07 | inactive |
| IK | SID164371144 | -0.0301 | 28.9 | 28.3 | inactive |
| IK | SID164371147 | 0.173 | 5.69 | 6.41 | inactive |
| IK | SID164371148 | -1.22 | 13.6 | 5.82 | inactive |
| PSKH2 | SID164548950 | 0.0573 | 87.5 | 91.1 | inactive |
| PSKH2 | SID164548951 | -0.157 | 85.4 | 76.7 | inactive |
| PSKH2 | SID164548952 | 0.387 | 32.5 | 42.4 | inactive |
| PSKH2 | SID164548954 | -0.167 | 75.9 | 67.5 | inactive |
| HCRTR2 | SID164368690 | -0.198 | 115 | 100 | inactive |
| HCRTR2 | SID164368691 | -0.353 | 98.5 | 77.1 | inactive |
| HCRTR2 | SID164368696 | -0.192 | 100 | 87.9 | inactive |
| HCRTR2 | SID164368697 | -0.162 | 85.1 | 76 | inactive |
| PEX14 | SID164380232 | -0.132 | 98.5 | 89.9 | inactive |
| PEX14 | SID164380233 | -0.0334 | 102 | 100 | inactive |
| PEX14 | SID164380234 | -0.52 | 85.3 | 59.4 | inactive |
| PEX14 | SID164380235 | 0.151 | 76.8 | 85.3 | inactive |
| CA10 | SID164491843 | 0.0535 | 92.6 | 96.1 | inactive |
| CA10 | SID164491844 | -0.0132 | 78.1 | 77.4 | inactive |
| CA10 | SID164491847 | -0.251 | 95.1 | 79.9 | inactive |

Already shown: an excerpt of the list.
| target | PubChem SID | log2 vehicle/camptothecin viability | viability with camptothecin (% of control) | viability without drug (% of control) | Call |
| --- | --- | --- | --- | --- | --- |
| HCRTR2 | SID164368690 | -0.198 | 115 | 100 | inactive |
| HCRTR2 | SID164368691 | -0.353 | 98.5 | 77.1 | inactive |
| HCRTR2 | SID164368696 | -0.192 | 100 | 87.9 | inactive |
| HCRTR2 | SID164368697 | -0.162 | 85.1 | 76 | inactive |
| PEX14 | SID164380232 | -0.132 | 98.5 | 89.9 | inactive |
